Reference: patent US20230233519A1, “COMBINATION THERAPIES” (MEI Pharma, Inc., priority 2020, published 2023)
At least one compound was matched to its structure with a doubt left.

What was measured:
[1] = system: H596 squamous lung cancer cells; assay: MTT cell viability assay, H596; assay type: cell-based; conditions: H596, 48 h, venetoclax 30 nM, Compound A 0, 5 and 10 μM
[2] = system: THP-1 childhood AML cells; assay: Viable cells (annexin V negative and PI negative) by flow cytometry, THP-1; assay type: cell-based, human; conditions: THP-1, 24 hr, clinically achievable concentrations
Protocol: (§1) FIG. 2C depicts the percentage of viable THP-1 childhood AML cells following treatment of THP-1 childhood AML cell lines with venetoclax (VEN) and d-cis-3-(4-hydroxyphenyl)-4-(4-hydroxyphenyl)-8-methylchroman-7-ol (Compound A), alone or in combination, for 24 h. and then subjected to Annexin V-FITC/PI staining and flow cytometry analysis. Viable cells (annexin V negative and PI negative) were gated. Viable cell counts from no drug treatment controls were set at 100%, and the rest of the samples were normalized to the no drug treatment controls. The data were presented as mean percent of viable cells from triplicates with standard errors. […]
(§2) Human adult AML cell lines (MOLM-13), human childhood AML cell lines (MV4-11 and THP-1), and cytarabine-resistant (araC-R) acute monocytic leukemia (AMoL) cell lines (U937) are treated with venetoclax and d-cis-3-(4-hydroxyphenyl)-4-(4-hydroxyphenyl)-8-methylchroman-7-ol (Compound A), alone or in combination, and are subject to flow cytometry analysis using Annexin V-fluorescein isothiocyanate (FITC)/propidium iodide (PI) Apoptosis Kit (Beckman Coulter, Brea, Calif.). Results are expressed as percent Annexin V-positive (Annexin V+) cells. […] The extent and direction of the antileukemic interaction between venetoclax and Compound A is determined by calculating the combination index (CI). […]

[3] = system: THP-1 childhood AML cells; assay: Annexin V-FITC/PI apoptosis flow cytometry, THP-1; assay type: cell-based, human; conditions: THP-1, 24 h, clinically achievable concentrations
Protocol: (§3) AML cell lines used as described herein include MOLM-13, MV4-11, and THP-1. MOLM-13 cells are purchased from AddexBio (San Diego, Calif., USA). MV4-11 and THP-1 cell lines are purchased from the American Type Culture Collection (Manassas, Va., USA). The cell lines are cultured in RPMI 1640 with 10-20% fetal bovine serum (Thermo Fisher Scientific, Waltham, Mass., USA), 2 mM L-glutamine, 100 U/mL penicillin, and 100 μg/mL streptomycin. All cells are cultured in a 37° C. humidified atmosphere containing 5% CO2/95% air. The cell lines are authenticated at the Genomics Core at Karmanos Cancer Institute using the Power-Plex 16 System from Promega (Madison, Wis., USA). […]
as §2

MOLM-13 AML cells [4] = assay: Viable cells (annexin V negative and PI negative) by flow cytometry, MOLM-13; assay type: cell-based, human; conditions: MOLM-13, 24 hr, clinically achievable concentrations
Protocol: FIG. 2A depicts the percentage of viable MOLM-13 AML cells following treatment of MOLM-13 AML cell lines with venetoclax (VEN) and d-cis-3-(4-hydroxyphenyl)-4-(4-hydroxyphenyl)-8-methylchroman-7-ol (Compound A), alone or in combination, for 24 h and then subjected to Annexin V-FITC/PI staining and flow cytometry analysis. Viable cells (annexin V negative and PI negative) were gated. Viable cell counts from no drug treatment controls were set at 100%, and the rest of the samples were normalized to the no drug treatment controls. The data were presented as mean percent of viable cells from triplicates with standard errors.
AML cell lines used as described herein include MOLM-13, MV4-11, and THP-1. […]
as §2

[5] = system: cytarabine resistant (araC-R) U937 acute monocytic leukemia (AMoL) cells; assay: Annexin V-FITC/PI apoptosis flow cytometry, araC-R U937; assay type: cell-based; conditions: araC-R U937, 24 h, clinically achievable concentrations
Protocol: Human adult AML cell lines (MOLM-13), human childhood AML cell lines (MV4-11 and THP-1), and cytarabine-resistant (araC-R) acute monocytic leukemia (AMoL) cell lines (U937) are treated with venetoclax and d-cis-3-(4-hydroxyphenyl)-4-(4-hydroxyphenyl)-8-methylchroman-7-ol (Compound A), alone or in combination, and are subject to flow cytometry analysis using Annexin V-fluorescein isothiocyanate (FITC)/propidium iodide (PI) Apoptosis Kit (Beckman Coulter, Brea, Calif.). Results are expressed as percent Annexin V-positive (Annexin V+) cells. For the AML/AMoL cell lines, experiments are performed three independent times in triplicate, and the data presented are from one representative experiment. The extent and direction of the antileukemic interaction between venetoclax and Compound A is determined by calculating the combination index (CI). CI<1 indicates synergistic effects, CI=1 indicates additive effects, and CI>1 indicates antagonistic effects. ***indicates p<0.001 compared to control.

[6] = system: MV4-11 childhood AML cells; assay: Viable cells (annexin V negative and PI negative) by flow cytometry, MV4-11; assay type: cell-based, human; conditions: MV4-11, 24 hr, clinically achievable concentrations
Protocol: as §1, with “2B” for “2C”, “MV4-11” for “THP-1”
as §2

[7] = system: MV4-11 childhood AML cells; assay: Annexin V-FITC/PI apoptosis flow cytometry, MV4-11; assay type: cell-based, human; conditions: MV4-11, 24 h, clinically achievable concentrations
Protocol: as §3, §2

MOLM-13 AML cells [8] = assay: Annexin V-FITC/PI apoptosis flow cytometry, MOLM-13; assay type: cell-based, human; conditions: MOLM-13, 24 h, clinically achievable concentrations
Protocol: as §3, §2

## CC1(C)CCC(CN2CCN(c3ccc(C(=O)NS(=O)(=O)c4ccc(NCC5CCOCC5)c([N+](=O)[O-])c4)c(Oc4cnc5[nH]ccc5c4)c3)CC2)=C(c2ccc(Cl)cc2)C1 [venetoclax]
[1]
  viability (% live cells) relative to untreated control: not effective at reducing viability
[2]
  viability (percent of viable cells vs no drug control): dose-dependent decrease in viability
[3]
  apoptosis (Annexin V+ cells): high levels of apoptosis
MOLM-13 AML cells [4]
  viability (percent of viable cells vs no drug control): dose-dependent decrease in viability
[5]
  apoptosis (Annexin V+ cells): high levels of apoptosis
[6]
  viability (percent of viable cells vs no drug control): dose-dependent decrease in viability
[7]
  apoptosis (Annexin V+ cells): high levels of apoptosis
MOLM-13 AML cells [8]
  apoptosis (Annexin V+ cells): high levels of apoptosis
